Data as given in patent publication EP4707304A1 (Axcynsis Therapeutics Pte. Ltd., dated 2024).
These are yes or no findings as the source states them, for the method shown. Some results given as binding are weak or reduced against the parent protein; the word gives no strength.

T1: VLP-hCLDN6 (human) (UniProt P56747)
T1 sequence: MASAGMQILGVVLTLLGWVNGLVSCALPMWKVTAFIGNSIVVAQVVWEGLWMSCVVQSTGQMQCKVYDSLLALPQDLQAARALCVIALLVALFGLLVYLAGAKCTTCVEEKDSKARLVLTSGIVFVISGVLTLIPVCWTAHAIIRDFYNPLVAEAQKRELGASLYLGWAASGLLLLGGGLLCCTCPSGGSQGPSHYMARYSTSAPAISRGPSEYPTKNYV


Molecular target: T1, VLP-hCLDN6 (human)
Assay: ELISA on coated VLP-hCLDN6

Binder | binding
murine/human chimeric antibody cAb-2 (antibody, V domains shown, also called cAb-1 with S31E) VH: EVKLVESGGGLVKPGGSLKLSCAASGFTFNEYTMSWVRQTPAKRLEWVVTISSGGGRTYYPDSVKGRFTISRDNARNTLYLQMSSLRSEDTAMYYCIRGDYRYDGFAYWGQGTLVTVST VL: DIQMTQSPASLSASVGETVTITCRASENIDSYLAWYQQKQGKSPQLLVYASTLLVDGVPSRFSGSRSGTQFSLKINSLQSEDVARYYCQHYYSIPYTFGSGTKLEIK | binds
humanized antibody hAb-29 (antibody, V domains shown, also called VH2VL4 with HC S31D) VH: EVKLVESGGGLVKPGGSLRLSCAASGFTFNDYTMSWVRQTPAKRLEWVVTISSGGGRTYYPDSVKGRFTISRDNAKNTLYLQMSSLRAEDTAVYYCIRGDYRYDGFAYWGQGTLVTVSS VL: DIQMTQSPSSLSASVGDRVTITCRASENIDSYLAWYQQKPGKSPQLLVYASTLLVDGVPSRFSGSRSGTQFSLTISSLQPEDVARYYCQHYYSIPYTFGSGTKLEIK | binds
humanized antibody hAb-26 (antibody, V domains shown, also called VH2VL4 with HC S31Y) VH: EVKLVESGGGLVKPGGSLRLSCAASGFTFNYYTMSWVRQTPAKRLEWVVTISSGGGRTYYPDSVKGRFTISRDNAKNTLYLQMSSLRAEDTAVYYCIRGDYRYDGFAYWGQGTLVTVSS VL: DIQMTQSPSSLSASVGDRVTITCRASENIDSYLAWYQQKPGKSPQLLVYASTLLVDGVPSRFSGSRSGTQFSLTISSLQPEDVARYYCQHYYSIPYTFGSGTKLEIK | binds
humanized antibody hAb-27 (antibody, V domains shown, also called VH2VL4 with HC S31M) VH: EVKLVESGGGLVKPGGSLRLSCAASGFTFNMYTMSWVRQTPAKRLEWVVTISSGGGRTYYPDSVKGRFTISRDNAKNTLYLQMSSLRAEDTAVYYCIRGDYRYDGFAYWGQGTLVTVSS VL: DIQMTQSPSSLSASVGDRVTITCRASENIDSYLAWYQQKPGKSPQLLVYASTLLVDGVPSRFSGSRSGTQFSLTISSLQPEDVARYYCQHYYSIPYTFGSGTKLEIK | binds
humanized antibody hAb-28 (antibody, V domains shown, also called VH2VL4 with HC S31Q) VH: EVKLVESGGGLVKPGGSLRLSCAASGFTFNQYTMSWVRQTPAKRLEWVVTISSGGGRTYYPDSVKGRFTISRDNAKNTLYLQMSSLRAEDTAVYYCIRGDYRYDGFAYWGQGTLVTVSS VL: DIQMTQSPSSLSASVGDRVTITCRASENIDSYLAWYQQKPGKSPQLLVYASTLLVDGVPSRFSGSRSGTQFSLTISSLQPEDVARYYCQHYYSIPYTFGSGTKLEIK | binds
humanized antibody hAb-30 (antibody, V domains shown, also called VH2VL4 with HC S31E) VH: EVKLVESGGGLVKPGGSLRLSCAASGFTFNEYTMSWVRQTPAKRLEWVVTISSGGGRTYYPDSVKGRFTISRDNAKNTLYLQMSSLRAEDTAVYYCIRGDYRYDGFAYWGQGTLVTVSS VL: DIQMTQSPSSLSASVGDRVTITCRASENIDSYLAWYQQKPGKSPQLLVYASTLLVDGVPSRFSGSRSGTQFSLTISSLQPEDVARYYCQHYYSIPYTFGSGTKLEIK | binds
humanized antibody hAb-33 (antibody, V domains shown, also called VH2VL4 with HC G100A) VH: EVKLVESGGGLVKPGGSLRLSCAASGFTFNSYTMSWVRQTPAKRLEWVVTISSGGGRTYYPDSVKGRFTISRDNAKNTLYLQMSSLRAEDTAVYYCIRGDYRYDAFAYWGQGTLVTVSS VL: DIQMTQSPSSLSASVGDRVTITCRASENIDSYLAWYQQKPGKSPQLLVYASTLLVDGVPSRFSGSRSGTQFSLTISSLQPEDVARYYCQHYYSIPYTFGSGTKLEIK | binds
humanized antibody hAb-34 (antibody, V domains shown, also called VH2VL4 with HC S31D/G100A) VH: EVKLVESGGGLVKPGGSLRLSCAASGFTFNDYTMSWVRQTPAKRLEWVVTISSGGGRTYYPDSVKGRFTISRDNAKNTLYLQMSSLRAEDTAVYYCIRGDYRYDAFAYWGQGTLVTVSS VL: DIQMTQSPSSLSASVGDRVTITCRASENIDSYLAWYQQKPGKSPQLLVYASTLLVDGVPSRFSGSRSGTQFSLTISSLQPEDVARYYCQHYYSIPYTFGSGTKLEIK | binds
murine/human chimeric antibody cAb-3 (antibody, V domains shown, also called cAb-1 with S31D) VH: EVKLVESGGGLVKPGGSLKLSCAASGFTFNDYTMSWVRQTPAKRLEWVVTISSGGGRTYYPDSVKGRFTISRDNARNTLYLQMSSLRSEDTAMYYCIRGDYRYDGFAYWGQGTLVTVST VL: DIQMTQSPASLSASVGETVTITCRASENIDSYLAWYQQKQGKSPQLLVYASTLLVDGVPSRFSGSRSGTQFSLKINSLQSEDVARYYCQHYYSIPYTFGSGTKLEIK | binds
murine/human chimeric antibody cAb-18 (antibody, V domains shown, also called cAb-1 with G100K) VH: EVKLVESGGGLVKPGGSLKLSCAASGFTFNSYTMSWVRQTPAKRLEWVVTISSGGGRTYYPDSVKGRFTISRDNARNTLYLQMSSLRSEDTAMYYCIRGDYRYDKFAYWGQGTLVTVST VL: DIQMTQSPASLSASVGETVTITCRASENIDSYLAWYQQKQGKSPQLLVYASTLLVDGVPSRFSGSRSGTQFSLKINSLQSEDVARYYCQHYYSIPYTFGSGTKLEIK | binds
